Sequences and labels used below:
B1: 5F11 IgG (antibody, V domains shown)
VH: EVQLVESGGGLVQPGRSLKLSCAASGFSFSNYGMAWVRQAATKGLEWVASISTGGGNTYYRDSVKGRFIVSRDNAKNTQYLQMDSLRSEDTATYYCTRHDRGGLYWGQGVMVTVSS
VL: DIVMTQAPLSVSVTPGESASISCRSSKSLLHSNGITYVYWYFQKPGKSPQVLIYRMSNLASGVPDRFSGSGSETDFTLKISRVEAEDVGIYHCGQLLENPYTFGAGTELELK
B2: 10B10 IgG (antibody, V domains shown)
VH: EVQLVESGGGLVQPGRSMKLSCAASGFTFTNFYMAWVRQAPTKALEWVASINTGGGYTYYRDSVKGRFTVSRDNTRSTLYLQMDSLRSEETATYYCARHLTYYGRYYYFDYWGQGVMVTVSS
VL: DIQLTQSPHSLSASLGETVSIECLASEGISNYLAWFHQKPGKSPQLLIYYASSLQDGVPSRFSGSGSGTQYSLKISNMQPEDEGVYYCQQGYKYPLTFGSGTKLEIK
B3: 5E11 IgG (antibody, V domains shown)
VH: ELQLEQSGGGLVQPGGSLTLSCAASGFTFSKYAMAWVRQAPTKGLEWVASISTGGVNTYYRDSVKARFTISRDNAKNTQYLQMDSLRSEDTATYYCATHTGDYFDYWGQGVMVTVSS
VL: DIVLTQSPALAVSPGQRATISCRASQSVSISGINLMNWYQQKPGQQPKLLIYHASILASGIPTRFSGSGSGTDFTLTIDPVQADDIATYYCQQTRESPLTFGSGTNLEIK
B4: 07A04 IgG (antibody, V domains shown)
VH: QVTLKESGPGILQPSHTLSLTCSFSGFSLSTYGMGVNWIRQPSGKGLEWLASIWWNGNTYNNPSLKSRLTVSKDTSNNQAFLKVTSVDTADTATYYCVHTRGIIRGRGLFFDYWGQGVMVTVSS
VL: DVQMTQSPYNLAASPGESVSINCKASKSISKYLAWYQQKPGKANKLLIYDGSTLQSGIPSRFSGSGSGTDFTLTIRSLEPEDFGLYYCQQHNEYPLTFGSGTKLEIKR

Results are given in words; binding and its absence hold for the method and conditions named. Binding calls can cover weak binding; strength is not graded here.

In the assay the target is cynomolgus GPRC5D (cynomolgus). The experiment in a line: cell ELISA, CHO expressing cynomolgus GPRC5D.
With B1, the binding result is reported as “binds”.

Consider B2, for which the binding result is given as “binds”. In the case of B3, the binding entry was “binds”. Take B4: the binding entry is listed as “binds”.
